According to article PMC4339652:
These are yes or no findings as the source states them, for the method shown. Some entries that bind do so weakly or less than the wild type.

Target: T1, TolAIII (TolA domain III, residues 296-421), wild type (E. coli) (UniProt P19934)
T1 sequence: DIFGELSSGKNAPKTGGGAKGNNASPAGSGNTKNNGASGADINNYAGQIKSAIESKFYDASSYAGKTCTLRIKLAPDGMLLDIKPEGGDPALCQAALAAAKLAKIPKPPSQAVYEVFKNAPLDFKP
Test: SPR; ~500 RU TolAIII WT, D418P or K420P amine-coupled to CM5; ColN-T, ColA-T or G3p-N1 at 5 µM injected at 30 µl/min for 120 s (up to 250 µM, data not shown); HEPES-EP, 25 °C; blank surface subtracted; both purified

B1: Colicin N translocation domain, ColN-T (ColN 1-90) (domain or fragment, UniProt P08083 1-90)
chain: MGSNGADNAHNNAFGGGKNPGIGNTSGAGSNGSASSNRGNSNGWSWSNKPHKNDGFHSDGSYHITFHGDNNSKPKPGGNSGNRGNNGDGA
With B1 the binding was “binds”.
